# Test results published in paper PMC7819943, “Rice protein-binding microarrays: a tool to detect cis-acting elements near promoter regions in rice”.
# Sequences of proteins named here, by UniProt entry; tags and fusion partners are left off.
# UniProt Q0JBA9, entry or part of it: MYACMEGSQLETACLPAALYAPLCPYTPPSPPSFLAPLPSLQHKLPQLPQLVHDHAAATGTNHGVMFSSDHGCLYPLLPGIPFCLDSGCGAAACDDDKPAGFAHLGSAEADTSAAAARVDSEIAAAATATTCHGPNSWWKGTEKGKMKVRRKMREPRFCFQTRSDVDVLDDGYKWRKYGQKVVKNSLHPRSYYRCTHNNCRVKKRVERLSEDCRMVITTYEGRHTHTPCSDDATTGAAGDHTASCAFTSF
# The list shows a part of the results.
# Biological target: OsWRKY34 (Oryza sativa, UniProt Q0JBA9 1-250)
# Assay: protein-binding microarray (RPBM); PBS, 2% BSA, 51.3 ng/ul salmon testes DNA, 50 uM zinc acetate, 200 nM TF, 25 C, 1 h; high values mean tight binding
# Conditions: protein: recombinant; tags: N-terminal polyhistidine and DsRed monomer fusion (pET32a); label: CyDye5-dUTP incorporated in the synthesized complementary strand; 3' TTTTT single-stranded linker to array surface; dsDNA, one strand shown
# Method in brief: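 Using Ni–NTA, transcription factors fused N-terminally to polyhistidine and DsRed were purified after expression in E. coli BL21-CodonPlus. These were incubated at 200 nM with a blocked, double-stranded custom Agilent array for 1 h at 25 °C in a buffer containing 50 µM zinc acetate, and the array was washed. The binding signal is per-feature fluorescence intensity (arbitrary units) on an Axon 4000B scanner.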
row,Sequence,binding signal
1,AGAGGCTGCTGTAAATCCTTCATTTTATTAAATTTATACTCGGAGTCACCTAGTGCAG,8710 fluorescence intensity (a.u.)
2,AATTCATTGTGTTACTCGTTTGTTCTGTTGGCTTTTTTACCGGAGTCACCTAGTGCAG,11200 fluorescence intensity (a.u.)
3,GCCTCTCCGCCCACCGCCGCCCATCGCCGCTCTGCCTGCACGGAGTCACCTAGTGCAG,10500 fluorescence intensity (a.u.)
4,GGGTCCGGTTTTCCTTATAAACTGGGTCAATTCTTTTTTCCGGAGTCACCTAGTGCAG,11500 fluorescence intensity (a.u.)
5,AGAGACTTTTAAAAACCTTTTTCGATTTAAATTATTCATGCGGAGTCACCTAGTGCAG,8520 fluorescence intensity (a.u.)
6,ATACTCCCTCCGTTTCAAAATGTTTGACATCGTTGACTTTCGGAGTCACCTAGTGCAG,9980 fluorescence intensity (a.u.)
7,CCCATAGCACATTCCTAGTTCTGTTATCCCGACCCGTTACCGGAGTCACCTAGTGCAG,10300 fluorescence intensity (a.u.)
8,TGCCTAGCTATTCTACTAGCTTTGTTTCTCTCTTGGCGACCGGAGTCACCTAGTGCAG,9020 fluorescence intensity (a.u.)
9,GCCCGATCCGTGATTTGTACACGTACTAATTTTTTCTTACCGGAGTCACCTAGTGCAG,8750 fluorescence intensity (a.u.)
10,ATGATGTACGTGTTCAGATTTATAGTTAGGATTATTTTTTCGGAGTCACCTAGTGCAG,9720 fluorescence intensity (a.u.)
11,GTTCTCTAGCCGCTTGTGATACTCGCAATCCTAAACCACGCGGAGTCACCTAGTGCAG,8410 fluorescence intensity (a.u.)
12,CGCTGTGGTTGGGTTCGCATGATTAATTGTTGCATTTAAACGGAGTCACCTAGTGCAG,13400 fluorescence intensity (a.u.)
13,AGTTGACCGCCGCCGCCGTTCCCATCCTGACCCCAACCAACGGAGTCACCTAGTGCAG,12200 fluorescence intensity (a.u.)
14,CGTCTTCTTCTTCTTTGAGCTTGCTTTGCTGCACACTCTACGGAGTCACCTAGTGCAG,9330 fluorescence intensity (a.u.)
15,CGTCATGTTATCGTCATTTTCGTGTAACGCTTCAGCGATACGGAGTCACCTAGTGCAG,9400 fluorescence intensity (a.u.)
16,CGATTTTTATTTTTCGCCGGATGGGGTTGACTTTTTTTTACGGAGTCACCTAGTGCAG,20900 fluorescence intensity (a.u.)
17,CAAATTTATGGTTGTAACGGTGTTGAATGAACGGTAGGCTCGGAGTCACCTAGTGCAG,9890 fluorescence intensity (a.u.)
18,GAGGAGGTGGGTTGGCCACGAGCGATAGAGGCCCACATGTCGGAGTCACCTAGTGCAG,8290 fluorescence intensity (a.u.)
19,CCACTGACCGGTGGGCCCCACAAAACCGCCCGCTGCACTCCGGAGTCACCTAGTGCAG,9390 fluorescence intensity (a.u.)
20,ATCCCAGTATCGCACCAGCACAATCAGTATCACTCTCACTCGGAGTCACCTAGTGCAG,8450 fluorescence intensity (a.u.)
21,GACCGCGTCACTGATTGGCCTGCCTCTCCTCGCACCGGGGCGGAGTCACCTAGTGCAG,9150 fluorescence intensity (a.u.)
22,TTATGGAATGGGTTTTGTCTTTAGTCTATGTTTAATACTTCGGAGTCACCTAGTGCAG,9100 fluorescence intensity (a.u.)
23,GTGTCTTAAGACGTTAGGCCGCCTCTGGTTAATTCTGTAACGGAGTCACCTAGTGCAG,8090 fluorescence intensity (a.u.)

# Single values from the entries so far:
# Under binding signal, GCCCGATCCGTGATTTGTACACGTACTAATTTTTTCTTACCGGAGTCACCTAGTGCAG is entered as 8750 fluorescence intensity (a.u.)
# Under binding signal, AGTTGACCGCCGCCGCCGTTCCCATCCTGACCCCAACCAACGGAGTCACCTAGTGCAG is entered as 12200 fluorescence intensity (a.u.)
